Reference: patent US7910739B2, “Acetylcholinesterase dual inhibitors” (priority 2003, dated 2011)
The match of structure and compound is tentative.

By UniProt entry, the sequences of proteins in these tests, tags left out. Residues count along the entry.
UniProt P23795, 31-614 isoform 2 limits assumed: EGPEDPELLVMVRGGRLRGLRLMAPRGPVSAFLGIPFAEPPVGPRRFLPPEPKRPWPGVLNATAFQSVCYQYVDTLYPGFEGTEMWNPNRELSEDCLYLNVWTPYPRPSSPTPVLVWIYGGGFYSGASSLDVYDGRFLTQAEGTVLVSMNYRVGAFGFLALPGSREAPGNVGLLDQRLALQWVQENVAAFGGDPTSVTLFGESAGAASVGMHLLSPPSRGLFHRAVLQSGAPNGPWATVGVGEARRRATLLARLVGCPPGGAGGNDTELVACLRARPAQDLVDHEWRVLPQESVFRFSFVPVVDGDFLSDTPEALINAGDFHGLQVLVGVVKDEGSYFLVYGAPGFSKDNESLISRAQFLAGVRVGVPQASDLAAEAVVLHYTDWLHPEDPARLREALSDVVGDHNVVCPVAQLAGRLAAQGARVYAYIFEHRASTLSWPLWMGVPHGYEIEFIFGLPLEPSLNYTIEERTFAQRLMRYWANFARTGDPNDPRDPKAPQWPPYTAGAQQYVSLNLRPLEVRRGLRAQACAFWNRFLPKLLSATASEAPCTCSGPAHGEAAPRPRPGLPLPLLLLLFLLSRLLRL

What was measured:
[1] = tested on: human neuroblastoma cell line SH-SY5Y; assay: Toxicity measurement (LDH release); format: cell-based; conditions: 24 hours exposure
Description: The cytotoxicity effect of the molecules was tested in the human neuroblastoma cell line SH-SY5Y. These cells were cultured in 96-well plates in DULBECCO'S MOD EAGLE medium, supplemented with 10% fetal bovine serum and 1% penicillin/streptomycin, and grown in a 5% CO2 humidified incubator at 37° C.
The cells were plated at 10^4 cells for each well, at least, 48 hours before the toxicity measure. Cells were exposed for 24 hours to the compounds at different concentrations (from 10^−5 to 10^−9), quantitative assessment of cell death was made by measurement of the intracellular enzyme lactate dehydrogenase (LDH) (citotoxicity detection kit, Roche). The quantity of LDH was evaluated in a microplate reader Anthos 2010, at 492 and 620 nm. Controls were taken as 100% viability.

AChE peripheral site = AChE peripheral site (Bos taurus, UniProt P23795); assay: Propidium competition (fluorescence); format: binding; conditions: 10 μM AchE, 20 μM propidium iodide, pH 8.0

For `O=C(/C=C/c1c[nH]c2ccccc12)NCCCCCCNc1c2c(nc3cc(Cl)ccc13)CCCC2`, the Toxicity [1] was >10 µM and the Propidium competition (AChE peripheral site) was 10 µM.
